Test results as given in PubChem BioAssay AID1671190 (National Center for Advancing Translational Sciences (NCATS), 2021).
“And” between values parts separate entries of the source, which are not always exact repeats. Identical values can stand only once. Screen size: about 580,000 compounds; about 6,100 (1.1%) were called active. This list was built around the results that the source calls inconclusive (neither active nor inactive); the mix of calls is not that of the screen. The call rests on the fitted dose curve; in most records, active means well fitted inhibition curve with a large enough effect; inconclusive means small, poorly fitted or top-dose-only effect, or another doubt; inactive means no such curve, though single readings can be large or run the other way. A potency beside an inconclusive call is a rough fit, not a confirmed value.

Protein sequences, listed by entry. Tags and fused reporters are not part of them.
UniProt P18054, whole entry, looked up: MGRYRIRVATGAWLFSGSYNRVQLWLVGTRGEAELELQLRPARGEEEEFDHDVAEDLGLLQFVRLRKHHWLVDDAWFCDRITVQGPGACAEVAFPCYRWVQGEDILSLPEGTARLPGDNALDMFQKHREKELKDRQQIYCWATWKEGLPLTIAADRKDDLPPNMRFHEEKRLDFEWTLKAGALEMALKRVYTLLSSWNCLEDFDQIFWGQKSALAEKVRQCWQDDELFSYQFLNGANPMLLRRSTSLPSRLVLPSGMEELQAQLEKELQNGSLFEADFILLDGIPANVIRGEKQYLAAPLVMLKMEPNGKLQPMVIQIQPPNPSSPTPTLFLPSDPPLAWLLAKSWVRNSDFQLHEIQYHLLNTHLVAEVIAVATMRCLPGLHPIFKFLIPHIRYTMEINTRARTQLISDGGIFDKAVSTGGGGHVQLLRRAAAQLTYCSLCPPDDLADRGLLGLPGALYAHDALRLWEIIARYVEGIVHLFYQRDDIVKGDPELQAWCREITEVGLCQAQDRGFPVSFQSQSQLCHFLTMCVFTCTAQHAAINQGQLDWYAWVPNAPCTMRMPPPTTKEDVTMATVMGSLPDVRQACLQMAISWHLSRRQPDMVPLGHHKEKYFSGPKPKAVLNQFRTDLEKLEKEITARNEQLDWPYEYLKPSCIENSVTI

These compounds were tested against Polyunsaturated fatty acid lipoxygenase ALOX12 (Homo sapiens) (UniProt P18054) (assay: Primary qHTS assay for inhibitors of human arachidonate 12S-lipoxygenase (ALOX12): Round 2). Settings: purified 12hLO, xylenol orange hydroperoxide absorbance; activity change, negative = inhibition: at 108 µM (top of the series) unless noted.
Summary of the method: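 Purified human 12hLO at 150 nM in 25 mM Hepes, 0.01% Triton X-100, pH 7.0, preincubated 15 min at room temperature with compound. Reaction started with 40 uM arachidonic acid, 30 min at room temperature. Hydroperoxide measured by Fe-xylenol orange, 573/405 nm absorbance ratio.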
On the % scale 0 is the no-effect control and ±100 the full control effect; potency means the concentration at half of the fitted maximal effect.

Structure (SMILES)	activity change, negative = inhibition	Potency
CNS(=O)(=O)c1cccc(C(=O)OCC(=O)c2ccc(S(=O)(=O)N3CCCCC3)cc2)c1	inactive: 0.276%	
O=C(CC1C(=O)NCCN1C(=O)Nc1ccc(F)cc1F)Nc1cc(Cl)ccc1Cl (configuration not stated)	inactive: 0%	
COc1ccc(OCc2nc3ccccc3n2C(C)C)cc1	inactive: 5.29%	
Cn1ccc2c(-c3ccc(CO)cc3)cc3c(c21)C1CCC3C1 (configuration not stated)		inconclusive: 100 µM [inhibitor, single point]
Oc1ccc(Cl)cc1C=NCc1ccccc1F		inconclusive: 50.1 µM [inhibitor, partial curve, poor fit]
O=C(/C=C/c1ccco1)Nc1ccc2oc(-c3ccccc3F)nc2c1		inconclusive: 11.2 µM [inhibitor, partial curve, poor fit]
CCN(CC)CCC#CC(O)(c1ccccc1)c1ccccc1		inconclusive: 44.7 µM [inhibitor, partial curve, poor fit]
CCCNc1nc2ccccc2nc1C(=O)Nc1ccc(Cl)cc1	inactive: -10.6%	
COc1ccccc1N1CCN([C@@H]2[C@H](O)[C@H](CO)O[C@@H]2CNC(C)C)CC1		active: 20 µM
COC(=O)c1ccc(NC(=O)CC2Sc3ccccc3NC2=O)cc1 (configuration not stated)		inconclusive: 126 µM [inhibitor, single point]
Cc1ccc(CNC(=O)c2ccc(CNS(=O)(=O)c3ccc4c(c3)C(C)(C)C(=O)N4C)cc2)o1	inactive: 4.69%	
CCCCN1C(C(C)=O)=C(OC(=O)c2ccccc2OC)c2ccccc2S1(=O)=O		inconclusive: 25.1 µM [inhibitor, partial curve, poor fit]
FC(F)(F)c1nc2ccccc2n2c(-c3c(Cl)cccc3Cl)nnc12	inactive: -29.3%	
CC(NC(=O)COc1ccc(Br)cc1)C(=O)O (configuration not stated)		inconclusive: 100 µM [inhibitor, single point]
COc1cc(OC)cc(OC(C)C(=O)Nc2ccc(F)cc2)c1 (configuration not stated)	inactive: -16.9%	
O=C(CCc1n[nH]c(=O)[nH]c1=O)N/N=C/c1ccco1	inactive: -1.81%	
N#Cc1cccc(NC(=O)CCc2ncc(-c3ccc(Cl)cc3)o2)c1		inconclusive: 35.5 µM [inhibitor, partial curve]
O=c1c2ccccc2nc(/C=C/c2cc(Br)ccc2O)n1CCCO		inconclusive: 50.1 µM [inhibitor, partial curve, poor fit]
COc1ccccc1Oc1ccc(N2CC(C(=O)OCC(=O)c3ccccc3)CC2=O)cc1 (configuration not stated)		inconclusive: 50.1 µM [inhibitor, partial curve, poor fit]
O=C(O)Cc1ccccc1C(=O)O	inactive: -21.3%	
COc1ccc(-c2cc(N3CCC(NC(=O)c4ccc(Cl)cc4OC)CC3)n[nH]2)cc1	inactive: -1.65%	
O=C(CCNc1n[nH]c(=O)[nH]c1=O)N/N=C/c1ccc(Cl)cc1	inactive: 10.1%	
Cc1ccc(C(=O)N[C@H]2CO[C@H]3[C@@H]2OC[C@@H]3Nc2nccc(C(C)(C)C)n2)cc1	inactive: 7.3% [at 176 µM]	

Structure (SMILES)	activity change, negative = inhibition	Potency
COc1cccc(OCC(O)CN2CCN(C)CC2)c1 (configuration not stated)		inconclusive: 2 µM [inhibitor, full curve, poor fit]
Oc1ccc(N=Nc2ccccc2)o1	inactive: 26.5%	
Cc1ccc(NC(=O)Nc2cc3c(cc2N2CCCCC2)n(C)c(=O)n3C)cc1Cl		inconclusive: 56.2 µM [inhibitor, partial curve, poor fit]
CN(CCc1ccccn1)C(=S)NC(=O)c1ccco1		inconclusive: 4.47 µM [inhibitor, full curve]
O=C(Nc1ccc2c(c1)CCC2)c1cccc(OC(F)F)c1		inconclusive: 100 µM [inhibitor, single point]
CC(C)Oc1cc(N(C)CC2CC(=O)N(C(C)(C)C)C2)nc(N)n1 (configuration not stated)	inactive: 25%	
COc1cc(OC)nc(C(NC(=O)C2CCN(Cc3ccc(Oc4ccccc4)cc3)CC2)c2ccc(F)cc2)n1 (configuration not stated)		inconclusive: 126 µM [inhibitor, partial curve, poor fit]
O=C1CNC(c2ccccc2)C(c2ccccc2)N1 (configuration not stated)		inconclusive: 50.1 µM [inhibitor, partial curve]
Cc1ccc(/C=C/C(=O)N2CCN(S(=O)(=O)c3cccs3)CC2)o1		inconclusive: 39.8 µM [inhibitor, partial curve, poor fit]
Cc1cc2nc(/C=C/c3cccc(C(F)(F)F)c3)sc2cc1C	inactive: -29.7%	
COC(=O)C1=C(CS(=O)(=O)c2ccc(C(C)(C)C)cc2)NC(=O)NC1c1ccc(O)cc1 (configuration not stated)		inconclusive: 79.4 µM [inhibitor, single point]
Cc1ccc(F)cc1NC(=O)CC(C)(C(=O)O)c1ccccc1 (configuration not stated)	inactive: 2.03%	
CCOc1cc(/C=C2\C(=O)ON=C2c2ccccc2)cc(Br)c1O		active: 22.4 µM
S=c1nc[nH]c2c1ncn2-c1ccccc1		inconclusive: 31.6 µM [inhibitor, partial curve]
Cn1nc(-c2ccc(Cl)cc2)c2cc(C(=O)N3CCN(c4ccccc4)CC3)sc21		inconclusive: 50.1 µM [inhibitor, partial curve, poor fit]
O=C(CCc1nc2ccccc2oc1=O)OCc1cccc(C(F)(F)F)c1	inactive: 1.88%	
COc1ccc(NC(=O)CN2CCN(CC(=O)Nc3ccccc3Cl)CC2)c(OC)c1	inactive: 0%	
Cc1nc(CN2CCN(S(=O)(=O)c3ccc(Cl)cc3)CC2)cs1		inconclusive: 31.6 µM [inhibitor, partial curve, poor fit]
NC(=O)c1cc([N+](=O)[O-])ccc1NCc1cccc2ccccc12		inconclusive: 89.1 µM [inhibitor, partial curve, poor fit]
N#CC1=C(Nc2ccccc2Cl)SC(c2ccncc2)NC1=O (configuration not stated)		inconclusive: 17.8 µM [inhibitor, partial curve, poor fit]
COC(=O)c1ccc(OC(=O)CS(=O)c2ccccc2[N+](=O)[O-])cc1 (configuration not stated)		inconclusive: 56.2 µM [inhibitor, partial curve, poor fit]
COc1ccc(N2CCN(C(=O)CSc3ccccc3)CC2)cc1		inconclusive: 50.1 µM [inhibitor, partial curve, poor fit]
O=C(NC(=S)NNC(=O)c1cnccn1)c1ccc(F)cc1		inconclusive: 44.7 µM [inhibitor, partial curve, poor fit]

Structure (SMILES)	activity change, negative = inhibition	Potency
CC(=O)c1nc2ccccc2n1S(=O)(=O)c1ccc(Cl)cc1	inactive: 5.03%	
Cc1ccc(C)c(NC(=O)CCc2c(C)n(C)c3cc(-c4ccccc4C)nn3c2=O)c1		inconclusive: 112 µM [inhibitor, partial curve, poor fit]
Cc1cccc2c3c(ccc12)C1=C(C(=O)C3=O)[C@@H](C)CO1		inconclusive: 79.4 µM [inhibitor, single point]
O=C(N/N=C/c1[nH]c2ccccc2c1Cl)c1cccc(Br)c1		inconclusive: 44.7 µM [inhibitor, partial curve, poor fit]
C[C@]12c3[nH]c4cc(-c5ccco5)ccc4c3CCN1C(=O)[C@@H](CC(=O)NCc1cccc(C(F)(F)F)c1)C[C@@H]2C(=O)N1CCOCC1		inconclusive: 39.8 µM [inhibitor, partial curve, poor fit]
CCN1CCCC1CNCc1ccc(Cl)cc1Cl (configuration not stated)		inconclusive: 112 µM [inhibitor, partial curve, poor fit]
C=CCNc1nc(-c2c(C)nc3sccn23)cs1		inconclusive: 31.6 µM [inhibitor, partial curve, poor fit]
Oc1ccccc1/C=N/n1c(-c2ccccc2)n[nH]c1=S		inconclusive: 4.47 µM [inhibitor, full curve, poor fit]
Cc1ccc(N2CC(NC(=O)c3cccc(CCC(C)(C)O)c3)CC2=O)cc1 (configuration not stated)	inactive: 68.6%	
CCn1c(C)cc(C(=O)CSc2n[nH]c(C3CC3)n2)c1C		inconclusive: 100 µM [inhibitor, single point]
COc1ccc(NC(=O)CN(C)C(=O)CSCc2ccc(C)cc2)cc1		inconclusive: 56.2 µM [inhibitor, partial curve, poor fit]
O=C(O)C(Cc1ccccc1)N1Cc2ccccc2C1=O (configuration not stated)		inconclusive: 28.2 µM [inhibitor, single point]
Cc1cc2oc(=O)cc(CN3CCCCC3)c2cc1C(C)C		inconclusive: 20 µM [inhibitor, partial curve, poor fit]
O=C(Nc1ccc(N2CCCC2)c(Cl)c1)c1ccco1		inconclusive: 50.1 µM [inhibitor, partial curve, poor fit]
COc1ccc(NC(=O)CN(C)S(=O)(=O)c2ccc3[nH]c4c(c3c2)CCCC4)cc1OC	inactive: -12.1%	
CC(C)c1nc(Cl)c(C#N)c2c1COC(C)(C)C2	inactive: -4.32%	
CCCn1c(N2CCN(CC(=O)c3c(C)n(C)c4ccc(OC)cc34)CC2)nc2c1c(=O)[nH]c(=O)n2C		inconclusive: 39.8 µM [inhibitor, single point]
Cc1ccc(S(=O)(=O)NC(C)(C)CSc2ccccn2)cc1		inconclusive: 56.2 µM [inhibitor, partial curve, poor fit]
CCC1CCc2sc(C(=O)NNC(=O)c3ccncc3)cc2C1 (configuration not stated)		inconclusive: 17.8 µM [inhibitor, partial curve, poor fit]
Cc1ccn2c(Nc3ccc4c(c3)OCO4)c(-c3ccc(O)cc3)nc2c1		inconclusive: 44.7 µM [inhibitor, partial curve, poor fit] and inconclusive: 79.4 µM [inhibitor, partial curve, poor fit]
COc1ccccc1CNc1ncnc2ccc(-c3cccnc3)cc12		inconclusive: 39.8 µM [inhibitor, partial curve]
